These results are taken from publication PMC3942467.

Chains of the proteins cited; added tags and fusions are not shown. Residues count along the entry.
UniProt P09038, residues 134-287: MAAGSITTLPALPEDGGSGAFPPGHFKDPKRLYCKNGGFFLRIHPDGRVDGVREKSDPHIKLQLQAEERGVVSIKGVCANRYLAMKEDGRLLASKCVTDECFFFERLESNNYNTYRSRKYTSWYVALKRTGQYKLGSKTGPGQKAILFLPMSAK
UniProt P19338, residues 284-707: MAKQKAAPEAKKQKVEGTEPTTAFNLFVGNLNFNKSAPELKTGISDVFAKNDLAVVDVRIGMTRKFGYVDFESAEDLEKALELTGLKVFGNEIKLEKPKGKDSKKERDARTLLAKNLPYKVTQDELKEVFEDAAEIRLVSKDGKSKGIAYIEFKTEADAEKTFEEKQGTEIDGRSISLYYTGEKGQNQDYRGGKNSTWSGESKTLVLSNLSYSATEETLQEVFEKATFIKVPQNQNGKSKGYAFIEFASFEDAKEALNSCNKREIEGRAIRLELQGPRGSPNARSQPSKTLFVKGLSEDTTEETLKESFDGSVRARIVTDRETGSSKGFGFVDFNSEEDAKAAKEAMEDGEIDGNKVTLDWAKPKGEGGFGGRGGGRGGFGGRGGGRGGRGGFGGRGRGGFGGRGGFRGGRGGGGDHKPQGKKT

These are yes or no findings as the source states them, for the method shown. Some results given as binding are weak or reduced against the parent protein; the word gives no strength.

In the assay the target is biotinylated FGF2 (Biot-FGF2) (UniProt P09038). The assay can be described thus: pull-down; 73 pmol of SBP- or biotin-labelled FGF with an equal molar amount of recombinant nucleolin-C, Streptavidin-coated Dynabeads; blot with anti-nucleolin; for Biot-FGF1 with or without heparin; both purified.

Turning to “recombinant C-terminal fragment (residues 284-707) of nucleolin (nucleolin-C) (from UniProt P19338 284-707) (domain or fragment)”, the binding entry is “binds”.
